# No constants are given. Whether binding was seen depends on the method and setting. Binding seen in cells or lysates may run through a third protein. Binding can be weak; no strength is given.
# Protein sequences, listed by entry. Tags and fused reporters are not part of them. Lines headed by an entry give the natural chain unless they say otherwise; changes in a name come on top. Residues count along the entry.
# UniProt Q9ULT6: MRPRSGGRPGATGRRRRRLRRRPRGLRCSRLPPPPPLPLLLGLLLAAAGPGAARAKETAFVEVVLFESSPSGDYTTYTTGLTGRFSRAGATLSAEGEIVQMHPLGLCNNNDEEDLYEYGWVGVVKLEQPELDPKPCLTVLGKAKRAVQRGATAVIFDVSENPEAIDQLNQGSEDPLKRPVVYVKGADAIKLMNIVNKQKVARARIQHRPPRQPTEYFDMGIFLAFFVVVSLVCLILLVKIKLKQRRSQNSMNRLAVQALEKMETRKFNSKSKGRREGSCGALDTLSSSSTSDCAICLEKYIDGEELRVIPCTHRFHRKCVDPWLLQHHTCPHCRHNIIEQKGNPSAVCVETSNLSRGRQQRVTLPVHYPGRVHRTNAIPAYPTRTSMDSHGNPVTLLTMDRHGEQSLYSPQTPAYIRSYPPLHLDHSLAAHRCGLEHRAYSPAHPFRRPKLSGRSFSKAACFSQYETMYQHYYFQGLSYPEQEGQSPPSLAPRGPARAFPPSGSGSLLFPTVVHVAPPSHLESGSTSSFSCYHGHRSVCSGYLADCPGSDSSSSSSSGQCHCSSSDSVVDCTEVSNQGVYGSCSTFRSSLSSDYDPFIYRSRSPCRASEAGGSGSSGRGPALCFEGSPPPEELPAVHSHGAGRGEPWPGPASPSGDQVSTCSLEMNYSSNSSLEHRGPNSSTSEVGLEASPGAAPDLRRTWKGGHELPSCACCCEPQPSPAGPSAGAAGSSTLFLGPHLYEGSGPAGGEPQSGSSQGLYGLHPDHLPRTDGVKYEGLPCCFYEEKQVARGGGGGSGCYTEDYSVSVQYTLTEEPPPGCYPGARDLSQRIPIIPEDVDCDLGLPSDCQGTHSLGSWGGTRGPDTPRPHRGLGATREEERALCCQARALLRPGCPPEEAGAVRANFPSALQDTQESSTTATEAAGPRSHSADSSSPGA
# UniProt Q13467, residues 27-585: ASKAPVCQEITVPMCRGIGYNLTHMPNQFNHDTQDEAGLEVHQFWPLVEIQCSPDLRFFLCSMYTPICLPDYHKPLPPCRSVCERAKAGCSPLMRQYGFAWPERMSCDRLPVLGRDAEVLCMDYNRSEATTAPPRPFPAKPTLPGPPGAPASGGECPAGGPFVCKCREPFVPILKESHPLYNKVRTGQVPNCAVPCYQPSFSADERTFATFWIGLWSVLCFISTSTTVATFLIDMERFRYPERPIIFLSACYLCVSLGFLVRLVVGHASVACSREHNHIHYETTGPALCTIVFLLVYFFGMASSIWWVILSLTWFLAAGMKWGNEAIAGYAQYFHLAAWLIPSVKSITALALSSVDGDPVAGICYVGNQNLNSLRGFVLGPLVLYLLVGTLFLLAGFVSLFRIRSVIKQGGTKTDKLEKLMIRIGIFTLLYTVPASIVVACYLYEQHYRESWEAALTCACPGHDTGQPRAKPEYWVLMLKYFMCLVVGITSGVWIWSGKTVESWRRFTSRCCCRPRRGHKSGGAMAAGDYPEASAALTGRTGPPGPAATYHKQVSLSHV
# Columns and labels:
# ZNRF3ΔRING = ZNRF3ΔRING (UniProt Q9ULT6); experiment: co-IP; both partners expressed in transfected HEK293T cells (FZD5-USP8 also in T79KO cells and with TMEM79 overexpressed; USP8-TMEM79 in FZD null cells); NP40 lysis buffer (50 mM Tris pH 7.5, 150 mM NaCl, 1 mM EDTA, 1% NP40, 10% glycerol, 10 mM NaF); antibody-conjugated agarose beads (anti-c-Myc, anti-HA, anti-Flag M2 or anti-V5) at 4°C overnight; five washes; immunoblot
# USP8CΔ = experiment: as above
binding (ZNRF3ΔRING),binding (USP8CΔ),Molecule
binds,–,FZD5 (transfected) (from UniProt Q13467 27-585) (receptor)
–,binds,"TMEM79 (FL, full length) (protein, UniProt Q9D709 1-391) MTEPETLALLDMKEPETPEKSPPQALVLQSEEEGGTESPGTESLRVGSSVGSPIVREGPEDGPDSTISEAATLPWGTDPHPSAPLPDPPGWRDIEPEPLESEAPTKSEEPFKEDANLLPEKTVRAFVPIDLQCIERKPQEERILHRDAGPGELRNFLPARLSHPEPPERKWAEAVVRPPGRSCGGCGSCGGREALRAVASVVAALIFFPCLLYGAYAFLPFDAPRLPTMSSRLVYTLRCGVFATFPIVLGLLVYGLSLLCFSALRPFGEPRREVEIHRQYVAQSVQLFILYFFNLAVLSTYLPQDTLKLLPLLTGLFAISRLIYWLTFAVGRSFRGFGYGLTFLPLLAMLVWNLYYMFVVEPERMLTASESRLDYPDHARSVSDYRPRSWG"
